Binding data for three substances are collected here from article PMC5386752.

Results are given in words; binding and its absence hold for the method and conditions named. Binding seen in cells or lysates may run through a third protein. Some binding calls cover weakened binding; strength is not graded here.

Test [1] has as its target FLAG-HA-tagged FBXW7, wild type (UniProt Q969H0). Nature of the test: co-IP; HEK293T cells co-transfected with FLAG-hnRNPK (or mutants) and FLAG-HA-FBXW7 (or WD40 mutant); HA-tagged FBXW7 immunoprecipitated from cell extracts with anti-HA resin, immunoblotting; RIPA lysis buffer; in some panels cells treated with GSK3i IX (10 uM, 10 h), U0126 (10 uM, 2 h) or DMSO.
Test [2] addresses endogenous (native) FBXW7 (human (endogenous in SW1990)) (UniProt Q969H0). Nature of the test: co-IP; native FBXW7 immunoprecipitated from SW1990 cell extracts with anti-FBXW7 antibody, immunoblotting; rabbit IgG as control; RIPA lysis buffer.

For the substance “FLAG-tagged hnRNPK (S116A/T120A) (from UniProt P61978 1-463)”, in test [1], the binding entry was “no binding”. The same measure, in the same setting: as for “FLAG-tagged hnRNPK (heterogeneous nuclear ribonucleoprotein K), wild type (from UniProt P61978 1-463)”, the entry is “binds”.

As to “endogenous hnRNPK (from UniProt P61978 1-463)”, the binding result in test [2] is on record as “binds”.
